The source of these data is article PMC5042004.

Amino acid sequences for entries named in this document (tags omitted). A change or cut given only in a name is not applied to a line headed by its entry.
UniProt P15056: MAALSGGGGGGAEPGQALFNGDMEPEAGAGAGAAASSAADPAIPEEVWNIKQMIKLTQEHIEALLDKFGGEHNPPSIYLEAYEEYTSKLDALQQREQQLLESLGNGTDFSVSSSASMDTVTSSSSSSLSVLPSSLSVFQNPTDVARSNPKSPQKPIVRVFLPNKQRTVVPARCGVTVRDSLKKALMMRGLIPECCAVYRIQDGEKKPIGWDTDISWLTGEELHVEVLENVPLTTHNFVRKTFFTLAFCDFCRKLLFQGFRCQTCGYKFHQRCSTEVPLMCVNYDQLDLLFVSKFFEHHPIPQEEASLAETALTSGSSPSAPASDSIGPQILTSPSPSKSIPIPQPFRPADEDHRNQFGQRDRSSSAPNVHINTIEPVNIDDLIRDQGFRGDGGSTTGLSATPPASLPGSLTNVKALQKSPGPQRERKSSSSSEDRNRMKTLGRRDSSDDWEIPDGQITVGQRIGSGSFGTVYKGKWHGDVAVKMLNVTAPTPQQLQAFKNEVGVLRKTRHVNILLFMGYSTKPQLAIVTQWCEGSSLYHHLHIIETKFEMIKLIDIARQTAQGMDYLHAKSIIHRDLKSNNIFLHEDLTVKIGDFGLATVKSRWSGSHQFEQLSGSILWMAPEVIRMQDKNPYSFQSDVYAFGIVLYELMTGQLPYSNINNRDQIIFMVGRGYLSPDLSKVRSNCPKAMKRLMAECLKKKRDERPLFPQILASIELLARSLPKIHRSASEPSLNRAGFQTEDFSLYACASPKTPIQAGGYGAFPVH
UniProt P28028: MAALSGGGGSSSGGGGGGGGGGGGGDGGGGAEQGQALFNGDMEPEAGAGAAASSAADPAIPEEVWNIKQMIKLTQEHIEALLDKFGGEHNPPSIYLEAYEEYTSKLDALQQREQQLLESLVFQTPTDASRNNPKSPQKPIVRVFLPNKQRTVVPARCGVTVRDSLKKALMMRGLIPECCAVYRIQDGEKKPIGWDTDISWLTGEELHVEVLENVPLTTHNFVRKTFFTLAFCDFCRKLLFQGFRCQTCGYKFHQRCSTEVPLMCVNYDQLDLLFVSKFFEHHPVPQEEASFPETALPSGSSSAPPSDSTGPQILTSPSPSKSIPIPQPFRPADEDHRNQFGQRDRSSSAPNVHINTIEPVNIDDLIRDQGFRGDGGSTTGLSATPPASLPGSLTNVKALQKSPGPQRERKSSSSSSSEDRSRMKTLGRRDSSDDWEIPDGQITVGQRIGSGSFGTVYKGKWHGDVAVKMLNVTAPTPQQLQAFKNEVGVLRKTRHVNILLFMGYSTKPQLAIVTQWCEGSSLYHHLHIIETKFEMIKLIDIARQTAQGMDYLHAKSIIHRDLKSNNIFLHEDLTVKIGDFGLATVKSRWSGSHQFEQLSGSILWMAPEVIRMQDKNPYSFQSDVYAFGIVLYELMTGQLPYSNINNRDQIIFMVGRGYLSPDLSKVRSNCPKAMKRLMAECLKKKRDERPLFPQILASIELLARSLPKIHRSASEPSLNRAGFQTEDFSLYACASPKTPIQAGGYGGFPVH
UniProt Q04982: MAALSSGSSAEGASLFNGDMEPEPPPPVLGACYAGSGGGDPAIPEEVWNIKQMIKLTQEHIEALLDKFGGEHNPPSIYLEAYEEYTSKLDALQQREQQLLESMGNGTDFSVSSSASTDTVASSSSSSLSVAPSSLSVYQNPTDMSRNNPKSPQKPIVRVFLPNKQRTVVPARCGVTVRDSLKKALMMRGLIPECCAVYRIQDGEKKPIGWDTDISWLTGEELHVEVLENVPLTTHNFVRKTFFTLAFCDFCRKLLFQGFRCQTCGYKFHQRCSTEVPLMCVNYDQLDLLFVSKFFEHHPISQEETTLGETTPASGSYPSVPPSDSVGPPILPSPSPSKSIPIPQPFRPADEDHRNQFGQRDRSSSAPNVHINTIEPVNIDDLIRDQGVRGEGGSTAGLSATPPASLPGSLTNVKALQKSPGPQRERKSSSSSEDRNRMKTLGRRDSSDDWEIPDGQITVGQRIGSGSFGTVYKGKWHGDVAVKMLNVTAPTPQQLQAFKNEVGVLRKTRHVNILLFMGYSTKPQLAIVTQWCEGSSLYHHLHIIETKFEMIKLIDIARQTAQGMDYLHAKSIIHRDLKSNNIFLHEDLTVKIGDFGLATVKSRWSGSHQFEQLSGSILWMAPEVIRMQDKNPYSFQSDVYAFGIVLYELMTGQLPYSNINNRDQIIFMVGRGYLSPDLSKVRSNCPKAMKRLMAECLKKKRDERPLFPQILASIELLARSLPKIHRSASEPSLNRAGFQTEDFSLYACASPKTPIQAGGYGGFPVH
UniProt Q86VI3: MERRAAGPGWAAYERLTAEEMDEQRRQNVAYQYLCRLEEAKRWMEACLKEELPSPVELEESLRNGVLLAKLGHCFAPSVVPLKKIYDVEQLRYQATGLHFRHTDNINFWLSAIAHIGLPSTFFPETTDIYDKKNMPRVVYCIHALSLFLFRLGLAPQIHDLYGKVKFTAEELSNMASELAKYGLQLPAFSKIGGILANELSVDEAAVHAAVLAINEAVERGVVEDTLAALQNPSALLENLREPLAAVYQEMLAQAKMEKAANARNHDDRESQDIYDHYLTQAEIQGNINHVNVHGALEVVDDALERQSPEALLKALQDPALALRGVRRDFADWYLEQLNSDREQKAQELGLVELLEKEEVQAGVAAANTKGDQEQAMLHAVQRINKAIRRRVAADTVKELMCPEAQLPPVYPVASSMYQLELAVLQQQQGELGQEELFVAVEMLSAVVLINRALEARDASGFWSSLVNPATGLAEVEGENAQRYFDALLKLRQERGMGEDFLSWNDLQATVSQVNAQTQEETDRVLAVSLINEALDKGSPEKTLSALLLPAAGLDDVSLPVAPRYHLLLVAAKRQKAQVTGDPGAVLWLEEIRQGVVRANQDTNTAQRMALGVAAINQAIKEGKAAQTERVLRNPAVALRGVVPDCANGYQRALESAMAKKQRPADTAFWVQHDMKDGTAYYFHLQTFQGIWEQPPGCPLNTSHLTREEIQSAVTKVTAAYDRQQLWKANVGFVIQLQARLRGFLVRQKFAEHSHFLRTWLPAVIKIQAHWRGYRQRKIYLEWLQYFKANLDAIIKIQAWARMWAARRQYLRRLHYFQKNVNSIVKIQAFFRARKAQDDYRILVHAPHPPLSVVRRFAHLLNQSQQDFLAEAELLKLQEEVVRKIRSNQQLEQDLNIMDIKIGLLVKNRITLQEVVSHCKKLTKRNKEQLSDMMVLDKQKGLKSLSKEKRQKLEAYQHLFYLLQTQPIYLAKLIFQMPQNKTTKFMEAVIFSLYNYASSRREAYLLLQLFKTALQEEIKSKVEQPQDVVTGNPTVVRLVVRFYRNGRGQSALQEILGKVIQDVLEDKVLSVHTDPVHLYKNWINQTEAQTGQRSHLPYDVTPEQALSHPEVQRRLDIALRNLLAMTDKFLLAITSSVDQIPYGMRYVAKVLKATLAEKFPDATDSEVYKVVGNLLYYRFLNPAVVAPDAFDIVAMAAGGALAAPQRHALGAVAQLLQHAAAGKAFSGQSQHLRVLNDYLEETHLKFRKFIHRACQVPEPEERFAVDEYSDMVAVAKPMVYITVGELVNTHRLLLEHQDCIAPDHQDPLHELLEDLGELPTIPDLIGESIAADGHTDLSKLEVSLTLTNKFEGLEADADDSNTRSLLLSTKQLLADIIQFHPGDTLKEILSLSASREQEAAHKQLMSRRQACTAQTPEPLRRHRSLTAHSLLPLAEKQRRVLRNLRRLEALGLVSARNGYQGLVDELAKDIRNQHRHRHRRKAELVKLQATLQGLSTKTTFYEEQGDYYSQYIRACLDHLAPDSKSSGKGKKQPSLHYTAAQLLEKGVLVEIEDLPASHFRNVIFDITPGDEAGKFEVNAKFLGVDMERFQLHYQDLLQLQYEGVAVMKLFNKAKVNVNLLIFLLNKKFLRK
UniProt Q8N122: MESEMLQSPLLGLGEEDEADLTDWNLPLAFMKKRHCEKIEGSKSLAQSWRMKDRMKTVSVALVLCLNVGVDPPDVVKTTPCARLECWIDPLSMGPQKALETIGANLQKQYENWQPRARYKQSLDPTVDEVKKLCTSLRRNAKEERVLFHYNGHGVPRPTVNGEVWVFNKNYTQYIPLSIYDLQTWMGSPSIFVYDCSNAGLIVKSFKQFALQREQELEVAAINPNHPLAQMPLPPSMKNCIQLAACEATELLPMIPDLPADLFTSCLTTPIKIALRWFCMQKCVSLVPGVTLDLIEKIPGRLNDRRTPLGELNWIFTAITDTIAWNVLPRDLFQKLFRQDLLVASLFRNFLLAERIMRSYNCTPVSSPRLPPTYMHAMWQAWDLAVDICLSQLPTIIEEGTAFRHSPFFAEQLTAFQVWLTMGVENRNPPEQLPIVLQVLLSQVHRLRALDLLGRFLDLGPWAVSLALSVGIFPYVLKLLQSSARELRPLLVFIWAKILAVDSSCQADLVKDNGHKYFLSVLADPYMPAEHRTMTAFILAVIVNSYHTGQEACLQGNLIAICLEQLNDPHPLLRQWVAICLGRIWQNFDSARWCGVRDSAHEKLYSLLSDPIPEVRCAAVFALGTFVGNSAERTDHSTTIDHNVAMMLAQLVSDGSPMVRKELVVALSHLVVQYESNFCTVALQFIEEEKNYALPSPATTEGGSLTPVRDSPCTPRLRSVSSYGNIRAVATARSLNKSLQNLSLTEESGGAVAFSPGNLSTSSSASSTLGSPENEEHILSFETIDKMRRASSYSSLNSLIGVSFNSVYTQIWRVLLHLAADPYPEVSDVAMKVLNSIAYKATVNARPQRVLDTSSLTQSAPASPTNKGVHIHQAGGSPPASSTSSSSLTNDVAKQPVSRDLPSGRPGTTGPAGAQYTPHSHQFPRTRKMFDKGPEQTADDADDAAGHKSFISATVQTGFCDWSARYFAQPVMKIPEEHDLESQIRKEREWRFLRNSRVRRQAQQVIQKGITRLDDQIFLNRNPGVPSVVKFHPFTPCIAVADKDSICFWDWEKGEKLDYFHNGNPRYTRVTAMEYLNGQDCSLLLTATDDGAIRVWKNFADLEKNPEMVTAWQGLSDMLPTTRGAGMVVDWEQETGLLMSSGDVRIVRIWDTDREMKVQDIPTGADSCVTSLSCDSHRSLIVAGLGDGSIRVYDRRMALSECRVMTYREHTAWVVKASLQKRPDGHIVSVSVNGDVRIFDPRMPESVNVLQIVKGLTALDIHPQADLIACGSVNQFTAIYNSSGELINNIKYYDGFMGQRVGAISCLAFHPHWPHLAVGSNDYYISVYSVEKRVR
UniProt P63208: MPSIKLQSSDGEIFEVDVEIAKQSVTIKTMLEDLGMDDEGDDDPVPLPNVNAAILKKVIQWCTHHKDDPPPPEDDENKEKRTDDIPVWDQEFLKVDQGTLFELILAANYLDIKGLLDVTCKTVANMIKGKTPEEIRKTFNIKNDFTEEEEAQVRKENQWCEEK
UniProt Q13526: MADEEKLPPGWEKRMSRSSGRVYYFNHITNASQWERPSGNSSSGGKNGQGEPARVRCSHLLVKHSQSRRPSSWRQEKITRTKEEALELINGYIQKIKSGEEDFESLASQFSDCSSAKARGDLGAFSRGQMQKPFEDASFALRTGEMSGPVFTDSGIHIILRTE
UniProt P97813: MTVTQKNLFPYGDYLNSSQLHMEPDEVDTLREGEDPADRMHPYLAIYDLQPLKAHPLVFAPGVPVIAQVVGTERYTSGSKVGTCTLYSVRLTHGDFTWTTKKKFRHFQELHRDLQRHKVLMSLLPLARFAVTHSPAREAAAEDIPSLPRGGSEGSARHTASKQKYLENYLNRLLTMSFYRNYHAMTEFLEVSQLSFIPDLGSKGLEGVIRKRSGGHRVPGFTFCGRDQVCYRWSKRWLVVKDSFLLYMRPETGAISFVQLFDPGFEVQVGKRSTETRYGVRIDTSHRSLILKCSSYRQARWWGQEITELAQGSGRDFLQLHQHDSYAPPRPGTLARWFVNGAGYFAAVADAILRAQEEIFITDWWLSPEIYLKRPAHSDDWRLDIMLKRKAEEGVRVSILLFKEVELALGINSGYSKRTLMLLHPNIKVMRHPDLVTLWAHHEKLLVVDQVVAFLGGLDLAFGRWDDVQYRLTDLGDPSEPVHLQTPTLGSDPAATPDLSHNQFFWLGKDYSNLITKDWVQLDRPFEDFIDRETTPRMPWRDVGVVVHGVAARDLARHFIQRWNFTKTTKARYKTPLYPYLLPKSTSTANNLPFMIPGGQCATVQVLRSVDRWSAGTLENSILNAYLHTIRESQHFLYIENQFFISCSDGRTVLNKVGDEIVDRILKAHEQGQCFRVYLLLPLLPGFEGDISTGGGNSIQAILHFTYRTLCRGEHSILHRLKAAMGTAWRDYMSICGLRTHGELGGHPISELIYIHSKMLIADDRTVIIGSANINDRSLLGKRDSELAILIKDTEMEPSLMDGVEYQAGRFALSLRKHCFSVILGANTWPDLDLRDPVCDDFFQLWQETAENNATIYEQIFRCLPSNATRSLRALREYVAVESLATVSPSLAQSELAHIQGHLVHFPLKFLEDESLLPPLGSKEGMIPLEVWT

Assay [1] addresses HA-tagged B-Raf^WT expressed in MCF-10A cells (UniProt P15056). As to the kind of experiment: affinity purification with mass spectrometry; anti-HA agarose IP of HA-tagged B-Raf^WT from MCF-10A cells against empty vector cells.
The target in assay [2] is endogenous B-Raf of MEFs (mouse (endogenous in MEFs)) (UniProt P28028). As to the kind of experiment: affinity purification with mass spectrometry; IP of endogenous B-Raf from MEFs against IgG control IPs; SILAC-based MS.
For assay [3], the target named is HA-tagged B-Raf^WT re-expressed in Braf deficient MEFs (human) (UniProt P15056). As to the kind of experiment: affinity purification with mass spectrometry; anti-HA IP of HA-tagged B-Raf^WT or B-Raf^D594A from complemented Braf-/- MEFs expressing H-Ras^G12V::ER^TM; with or without 4-HT and 10 uM sorafenib; SILAC-based MS against vector control or B-Raf^WT IPs.
Assay [4] addresses HA-tagged B-Raf^D594A re-expressed in Braf deficient MEFs (human) (UniProt P15056). The assay is described as above.
Assay [5] deals with B-Raf (cell system of the purification not given) (not stated (chicken, human or mouse B-Raf)) (UniProt P15056). As to the kind of experiment: affinity purification with mass spectrometry; IP of endogenous or HA-tagged B-Raf; the text does not tell from which of the four cell systems.
In assay [6] the target is HA-tagged chicken B-Raf (chicken) (UniProt Q04982). As to the kind of experiment: affinity purification with mass spectrometry; anti-HA IP of HA-tagged chicken B-Raf from complemented B-Raf/Raf-1 deficient DT40 cells against empty vector cells; label-free and SILAC-based MS; two biological replicates.

These are yes or no findings as the source states them, for the method shown. Binding seen in cells or lysates may run through a third protein. Here binding means that the protein was enriched with, or labelled near, the bait; the list need not be complete.

With “IQGAP1 (human, MCF-10A) (from UniProt P46940 1-1657)”, the binding result in assay [1] is “binds”.
Regarding “IQGAP1 (mouse, MEFs) (from UniProt Q9JKF1 1-1657)”, the binding result in assay [2] and in assay [3] was “binds” in each case.
Regarding “IQGAP3 (human, MCF-10A) (from UniProt Q86VI3 1-1631)”, in assay [1], the binding result is given as “binds”.
“Myosin 9b (mouse, MEFs) (from UniProt Q9QY06 1-2114)”: in assay [4], the binding entry is recorded as “binds”.
Regarding “Raptor subunit of the mTOR complex (from UniProt Q8N122 1-1335)”, the binding result in assay [5] is “binds”.
On the same count and under the same terms, for Skp1 (from UniProt P63208 1-163) the value was “binds”.
“USP7 (chicken, DT40) (from UniProt Q6U7I1 1-1101) (enzyme)”: in assay [6], the binding entry is “binds”.
On to “peptidyl-prolyl-cis/trans-isomerase Pin1 (from UniProt Q13526 1-163) (enzyme)”, for which the binding result in assay [5] is “binds”.
As to “phospholipase D2 (mouse, MEFs) (from UniProt P97813 1-933) (enzyme)”, in assay [4], the binding result is on record as “binds”.
